Laboratory results from PMC4559669.
No constants are given. Whether binding was seen depends on the method and setting.

Protein sequences, listed by entry. Tags and fused reporters are not part of them.
UniProt P45684: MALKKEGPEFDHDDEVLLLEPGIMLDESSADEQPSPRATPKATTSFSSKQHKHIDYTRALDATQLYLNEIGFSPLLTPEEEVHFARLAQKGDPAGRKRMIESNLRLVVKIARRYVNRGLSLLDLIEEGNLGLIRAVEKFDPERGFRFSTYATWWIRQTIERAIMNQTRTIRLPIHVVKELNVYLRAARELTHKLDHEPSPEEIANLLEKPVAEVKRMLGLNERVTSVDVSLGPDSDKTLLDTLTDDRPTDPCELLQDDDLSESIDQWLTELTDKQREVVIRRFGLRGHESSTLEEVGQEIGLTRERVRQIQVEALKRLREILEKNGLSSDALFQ

Tests used:
[1] = biological target: CrlSTM-T18 (Crl from S. Typhimurium fused to T18) (S. Typhimurium) (UniProt Q7CR52); test: two-hybrid; bacterial adenylate cyclase-based two hybrid (BACTH) in E. coli cya DHT1; Crl-T18 and T25-σ^S hybrids; 30 °C, 0.5 mM IPTG; β-galactosidase activity in Miller units
[2] = biological target: (his)6-CrlSTM (S. Typhimurium Crl, purified) (S. Typhimurium) (UniProt Q7CR52); test: ITC; in vitro with purified proteins; conditions in Supplementary Methods; both purified

T25-σ^SPA (P. aeruginosa σ^S fused to T25) (from UniProt P45684 1-334)
binding [1]: no binding

(his)6-σ^SPA wild type (P. aeruginosa σ^S, purified) (from UniProt P45684 1-334)
binding [2]: no binding
